In patent publication US20050131238A1, “Spermicides” (SSL International plc, priority 2001, published 2005):

Test system: ME180 cells versus human sperm
Assay: Therapeutic index (ratio of cell cytotoxicity EC50 to spermicidal efficacy ED50)
Procedure: 3. Determination of Therapeutic Index
The therapeutic index is the ratio of cell cytoxicity EC50 datum to the spermicidal efficacy ED50 datum and is calculated using the data obtained in methods 1 and 2 above using the following formula: [formula] Test Compounds

Going from O=C1C=CC(=O)N1c1ccc(OCCOCCOCCOCCOc2ccc(N3C(=O)C=CC3=O)cc2)cc1 [Compound 15] to O=C1C=CC(=O)N1c1ccc(OCCOCCOCCOCCOCCOc2ccc(N3C(=O)C=CC3=O)cc2)cc1 [Compound 13], the “TI (therapeutic index)” value falls from 31 to 27.

Compared with COC(=O)c1scc(C)c1N1C(=O)C=CC1=O [Compound 6], CCOC(=O)c1ccc(N2C(=O)C=CC2=O)cc1 [Compound 3] is higher in “TI (therapeutic index)” value: 3 for the first, 5 for the second.

Going from N#Cc1cccc(N2C(=O)C=CC2=O)c1 [Compound 9] to O=C1C=CC(=O)N1c1ccccc1 [Compound 1], the “TI (therapeutic index)” value rises from 2.6 to 12.

Compared with O=C1C=CC(=O)N1CCN1C(=O)C=CC1=O [Compound 10], O=C1C=CC(=O)N1CCOCCOCCOCCN1C(=O)C=CC1=O [Compound 12] is lower in “TI (therapeutic index)” value: 129 for the first, 32 for the second.

Going from Cc1cc(N2C(=O)C=CC2=O)no1 [Compound 8] to O=C1C=CC(=O)N1c1ccc2c(c1)OCCO2 [Compound 7], the “TI (therapeutic index)” value falls from 11 to 10.

Compared with O=C1C=CC(=O)N1C1CCCCC1 [Compound 5], COCCOCCOCCOCCOc1ccc(N2C(=O)C=CC2=O)cc1 [Compound 14] is higher in “TI (therapeutic index)” value: 0.4 for the first, 2 for the second.

O=C1C=CC(=O)N1c1ccc(-c2ccc(N3C(=O)C=CC3=O)cc2)cc1 [Compound 11] was tested, and the “TI (therapeutic index)” value was >21.
